## Results from one PubChem assay

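Luminescence from an EWS-FLI1 target-promoter (NR0B1) reporter, set against a CMV-promoter reporter, two days after silencing single genes in TC32 Ewing sarcoma cells.
Each siRNA was applied at 20 nM.
A z-score of the log NR0B1-over-CMV signal, less the median of siRNAs with the same seed; more negative means a stronger specific loss of the NR0B1 reporter.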

This is part of the screen; most of the strongest results are not listed here.
Sequences are the guide (antisense) strand, without overhang.

strand	target gene	seed-corrected z-score
AUAGGAUCCGCUGUUCUUU	CEACAM8	0.6747
UAAAUCACCCACAUUAAUG	TAF9	-0.3242
AUACAUUGAACCAUUCUGG	PCBD2	0.1724
UCCUAUAACAGGAUGGUCC	APLF	-0.9084
UCACCCACAAAGAAGGUGG	SLC52A3	-0.2931
UAGGUUCUUCUUAAACAGC	VPS11	-0.9689
UAGGGUAUUAGUAUGGUGG	AKAP11	-1.796
AAGAUGAUCAGGCUAACGG	DPM2	0.4152
UCAUCGUCUGGUACAUGCC	SIDT2	-1.027
UAUUCAUGAGCUGUACUUC	TESK2	-0.5915
UAUGGUUCCCACAACCACG	RPL18P4	-0.03094
UAAGGAUCAACAAGGCUCC	MTOR	-0.0384
UAAUUGUUAGGCAGCAAAC	OR2T1	0.7485
ACUCGUUUCAUAUUGCCUC	CKMT2	-0.02718
UUCAAGUUCCUCAAUAAGG	PON3	-0.7089
UGCUAUGAAAUCCUAGUUC	LGR5	0.2099
AAGAGGAGUAAUAUGAUGU	MTPN	-0.5465
UGUUAGACCAGGCAUUUCA	FLJ22447	-1.108
UUCGCAUUGAGAAGGCUCU	SPC24	0.1245
AGAUCAAUGGGAUAGAUUC	DDX1	-0.6724
UAAGGUUUAAACAACGGGC	TMEM37	-0.5673
UUUCCUUUUGUCUCAGUUG	DYDC1	-0.3247
AAACUGUACACUAGGACCU	LOC727874	-0.2739
UUCGUCAUCACCUUGUCGC	GPATCH2L	0.4796
UAAGAAACAUGUUCUUGUG	CALCR	0.008885
UUUGGUGCCGGUGAAAUUU	TBR1	-0.5121
UUUCCGAAAAUAGAUUUGC	AGTPBP1	0.005077
UAUAGCCUGACCAUCAUCC	PROSER3	2.281
AUCACUUCUAAUAAUAAGG	FGFR1OP	-0.07086
GUGGCUAUCAGUUGGGCAG	PF4	0.1874
AAUUUCUCAGCAGUCAUCC	UBXN11	-1.946
UCGGUGAAAAGGGCAUUGC	SERPINA5	-1.765
UAUAUGUAGGCCGGGUUGU	JPX	0.3084
UCUUGUAGUAGGACAGUGU	FERMT3	0.3042
UUCGGAUCUCUACCUCUCC	LTK	0.06594
UCUGGAUACACUGUACCAG	N4BP1	0.004647
AACCUCAACAUUUCUAAUG	PCGF5	0.114
UAAGAUCAUAGAGAGCUGU	UBE2HP1	0.495
UUCUUUAAGCACGAUGGGC	RASA3	-1.176
UCCAUUAUAUAAUAGGAUC	CTSA	-0.07064
UAAACCACCAACUAUUUUC	IFT20	0.4274

For reference, 3 entries once more:

strand	target gene	seed-corrected z-score
UUUCCUUUUGUCUCAGUUG	DYDC1	-0.3247
UAUAUGUAGGCCGGGUUGU	JPX	0.3084
UUUCCGAAAAUAGAUUUGC	AGTPBP1	0.005077

The results are deposited in PubChem (AID1159506; NCATS, 2015).